Values from PubChem BioAssay AID1224826 (NIAID, 2016).

- Test: 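Genes that change LPS-induced Tnf promoter activity in mouse macrophages when knocked down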 (primary screen)
- Cell system: RAW264.7 G9 macrophages from mouse bearing reporters for p65 (GFP) and the Tnf promoter (mCherry)
- Knock-down reagent: siRNA pool against mouse genes, 100 nM
- Timing: 16 h of LPS stimulation, after 2 days of siRNA transfection
- Conditions: bacterial lipopolysaccharide (Salmonella minnesota R595), 10 ng/ml
- Read-out: 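Nuclear mCherry signal of the Tnf promoter reporter measured by imaging after background removal, scaled to each plate median and turned into robust z-scores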
- Scale: Tnf reporter robust z-score: higher = stronger Tnf promoter reporter signal after LPS
- Call rule: 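Called active when robust z-score is at most -1.3, matching the median of the Tlr4 knock-down control, or over 3; control wells and wells with under 50 cells never active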
- Calls: active = Tnf reporter clearly lowered or raised; inactive = no clear change in Tnf reporter
This is one part, drawn at random, of about 17,000 deposited reagents. Of all reagents, about 1,110 (6.6%) were called active. 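Active means lowered or raised reporter signal; replicate intensities are raw and not normalised per plate.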 Entries without a mark were called inactive. Further read-outs or replicates are left out here.

Silencing of Dapk3 came out at: Tnf reporter robust z-score 0.17; fewer than 50 cells in well enough cells in well.
For Trmu the deposit lists Tnf reporter robust z-score 0.08; fewer than 50 cells in well enough cells in well.
Silencing of A930104D05Rik resulted in: Tnf reporter robust z-score -0.77; fewer than 50 cells in well enough cells in well.
For Crmp1, the values are Tnf reporter robust z-score -0.01; fewer than 50 cells in well enough cells in well.
For Mrpl36, the entry reads Tnf reporter robust z-score 0.39; fewer than 50 cells in well enough cells in well.
Against Dalrd3 the deposit lists Tnf reporter robust z-score 1.25; fewer than 50 cells in well enough cells in well.
Silencing of Spire1 came out at: Tnf reporter robust z-score -0.05; fewer than 50 cells in well enough cells in well.
Against Top3b the deposit lists Tnf reporter robust z-score -0.84; fewer than 50 cells in well enough cells in well.
With knock-down of Pole the results were Tnf reporter robust z-score 0.61; fewer than 50 cells in well enough cells in well.
Against Slc38a2 the deposit lists fewer than 50 cells in well fewer than 50 cells per well; well left out of calls.
Inhba showed Tnf reporter robust z-score 0.93; fewer than 50 cells in well enough cells in well.
Silencing of Cmklr2 gave: Tnf reporter robust z-score -0.6; fewer than 50 cells in well enough cells in well.

A few values from above:
Result of Cmklr2 in “fewer than 50 cells in well”: enough cells in well
Pole, fewer than 50 cells in well = enough cells in well

Further entries follow.
With knock-down of Wnt11, the record shows Tnf reporter robust z-score 0.1; fewer than 50 cells in well enough cells in well.
With knock-down of Nme4 the results were Tnf reporter robust z-score -0.99; fewer than 50 cells in well enough cells in well.
With knock-down of Slc13a3, the screen gave Tnf reporter robust z-score 2.06; fewer than 50 cells in well enough cells in well.
Depletion of Zfyve19 gave: Tnf reporter robust z-score -0.91; fewer than 50 cells in well enough cells in well.
After knock-down of Abhd17a the results were Tnf reporter robust z-score -1.73 (active); fewer than 50 cells in well enough cells in well.
Depletion of Cfap57 came out at: Tnf reporter robust z-score 0.09; fewer than 50 cells in well enough cells in well.
Depletion of Ddc resulted in: Tnf reporter robust z-score -0.31; fewer than 50 cells in well enough cells in well.
Ndufc2 gave Tnf reporter robust z-score 1.1; fewer than 50 cells in well enough cells in well.
Hyou1 scored Tnf reporter robust z-score 0.13; fewer than 50 cells in well enough cells in well.
